Test results reported in publication PMC4363703.
No constants are given. Whether binding was seen depends on the method and setting. Some results given as binding are weak or reduced against the parent protein; the word gives no strength.

Target: T1, Sam50 (human (endogenous in HeLa)) (UniProt Q9Y512)
T1 sequence: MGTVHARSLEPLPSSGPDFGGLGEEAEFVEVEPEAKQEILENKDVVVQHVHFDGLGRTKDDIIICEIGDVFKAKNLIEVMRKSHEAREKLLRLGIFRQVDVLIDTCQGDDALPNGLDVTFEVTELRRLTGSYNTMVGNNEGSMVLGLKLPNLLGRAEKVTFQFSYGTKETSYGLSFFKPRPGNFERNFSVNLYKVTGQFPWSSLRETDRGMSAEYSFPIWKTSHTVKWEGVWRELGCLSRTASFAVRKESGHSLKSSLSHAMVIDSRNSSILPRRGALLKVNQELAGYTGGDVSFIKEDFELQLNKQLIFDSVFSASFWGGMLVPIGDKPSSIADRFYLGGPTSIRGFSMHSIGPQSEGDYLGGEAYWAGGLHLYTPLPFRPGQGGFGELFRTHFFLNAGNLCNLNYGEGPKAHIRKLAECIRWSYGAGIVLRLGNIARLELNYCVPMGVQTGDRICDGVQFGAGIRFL
Assay: native gel or EMSA; 35S-labeled Mic23/ApoO imported at 37°C into isolated mitochondria (50 μg per lane) of non-induced and induced knockdown cell lines or HeLa cells, lysed in 1% digitonin buffer, 4-10% BN-PAGE, autoradiography; >1 MDa complex

binding: binds
B1: 35S-labeled Mic23/ApoO precursor (protein, UniProt Q9BUR5 1-198)
chain: MFKVIQRSVGPASLSLLTFKVYAAPKKDSPPKNSVKVDELSLYSVPEGQSKYVEEARSQLEESISQLRHYCEPYTTWCQETYSQTKPKMQSLVQWGLDSYDYLQNAPPGFFPRLGVIGFAGLIGLLLARGSKIKKLVYPPGFMGLAASLYYPQQAIVFAQVSGERLYDWGLRGYIVIEDLWKENFQKPGNVKNSPGTK
modifications: 35S-methionine/cysteine labelled
